In assay [1] the target is T1, V-Set And Immunoglobulin Domain Containing 4 (VSIG4) (human) (UniProt Q9Y279).
T1 sequence (looked up): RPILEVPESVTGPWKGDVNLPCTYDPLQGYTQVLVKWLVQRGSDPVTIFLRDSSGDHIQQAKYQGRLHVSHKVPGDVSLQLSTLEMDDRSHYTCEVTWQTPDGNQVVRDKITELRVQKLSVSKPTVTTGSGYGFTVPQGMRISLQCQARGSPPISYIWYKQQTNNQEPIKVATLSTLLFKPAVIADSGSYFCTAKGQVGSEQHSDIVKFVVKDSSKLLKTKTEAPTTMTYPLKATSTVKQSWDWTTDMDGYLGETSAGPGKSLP
As to the kind of experiment: SPR.

Assay [2] addresses T1, V-Set And Immunoglobulin Domain Containing 4 (VSIG4) (human). Description: SPR (surface plasmon resonance); the sheet and the text give neither the analyte concentrations nor which partner is immobilised; the time axis has no unit. Background: In SPR one partner is held on a chip, and binding of the other changes the refractive index at the surface.

No constants are given. Whether binding was seen depends on the method and setting. Some binding calls cover weakened binding; strength is not graded here.

B1: EU103.2 antibody (antibody, V domains shown)
VH: QVQLQESGPGLVKPSQTLSLTCSFSGISLTTSGMGVGWIRQPPGKGLEWLADIFWDDNKYYNPSLKSRVTISVDTSKNQFSLKLSSVTAADTAVYYCVRVYYKNDGYFDVWGQGTLVTVSS
VL: EIVMTQSPATLSVSPGERATLSCRASKSVTTSGYSFMHWYQQKPGQAPRLLIYLASNLEPGIPARFSGSGSGTEFTLTISSLQSEDFAVYYCQHSRELPYTFGQGTKLEIK
notes: also called humanized anti-VSIG4 antibody generated from mouse anti-VSIG4 antibody mu6H8
As to B1, the binding entry in assay [1] and in assay [2] was “binds” throughout.

The record behind these values is patent US20200291126A1 (EUTILEX, published 2020).
